For part of these data: At least one read-out could not be matched to a standard name with certainty. For part of these data: At least one compound was matched to its structure with a doubt left.
B1: wt-LimF: prenyltransferase derived from Limnothrix sp. CACIAM 69d, SEQ ID NO: 1 (protein, listed as Limnothrix sp.)
chain: MKKRKSSKVFKSTIAPEEKLRYIGNHKQAFDIEPLYPLALFEEFVATTGDCIIECSGKIKQDQLYPARIDLQFSDKHHFHNIHTSIDFLKRAASRTDVNLNLDILATFLAGNFDYSKVQNILAGIDLRQNLGESKLKLFIRIGDYPAKMAVAKHLCNITPESEAMLRSDTLHIGFDFYLDGRSAIELYPELKKDEFNHPFIYNQLKTILSPEALKPLPLCNLFGIGLSPANEANVLYYHLENIEDFLSYFPINDTARRVHDFYLQQEGSRRMWVALSESEMKAGRINNVNLYYSKAFTSQNP
modifications: CACIAM 69d

How the values were obtained:
Type in all cases: biochemical
[1] = tested on: wt-LimF, prenyltransferase from Limnothrix sp. CACIAM 69d, wild type, SEQ ID NO: 1; assay: Kinetic parameters of bcLimE2 prenylation with different prenyl group donors; details: 1 mM donor fixed, bcLimE2 concentration varied, pH 7.2, 25° C
[2] = tested on: LimF variant printed as LimF-H238G/W273T (parent LimF, Limnothrix sp. CACIAM 69d, SEQ ID NO: 1); assay: as above; details: 1 mM donor fixed, bcLimE2 concentration varied, pH 7.2, 25° C
[3] = tested on: LimF variant H239G/W273T (parent LimF, Limnothrix sp. CACIAM 69d, SEQ ID NO: 1); assay: Prenyl group donor (FPP) concentration dependence of bcLimE2 prenylation, Michaelis-Menten; details: 1 μM enzyme, various FPP, 0.1 mM bcLimE2, 5 mM MgCl2, pH 7.2, 25° C
bcLimE2 = assay: Kinetic parameters of LimF and variants at various bcLimE2 concentrations; details: prenyl group donor GPP

Molecule	Km [1] [µM]	kcat [1] [s⁻¹]	Km [2] [µM]	kcat [2] [s⁻¹]	Vmax [3]	Km ([3]; read-out: KFPP) [µM]	kcat/KM (bcLimE2) [M⁻¹ s⁻¹]
CC(C)=CCC/C(C)=C/COP(=O)(O)OP(=O)(O)O [GPP, geranyl pyrophosphate]	310 ± 40	0.23 ± 0.01	580 ± 70	0.000367 ± 1.7e-05			
CC(C)=CCC/C(C)=C/CC/C(C)=C/CO[P@@](=O)(O)OP(=O)(O)O (stereo in doubt) [FPP, farnesyl diphosphate]			620 ± 60	0.0105 ± 0.0005	Vmax = 0.849 ± 0.014 min^−1	14	
B1							735
